Results on three compounds are retold here after patent publication US20230416196A1, “DIMER OF BIGUANIDINES AND THEIR THERAPEUTIC USES” (INSTITUT CURIE, priority 2020, published 2023).

SMILES strings stand for the structures. Structures can show the parent of a compound that is named as a salt.

Data set [1] in a line: High-resolution mass spectrometry of biguanide:copper(II) complexes. The data set is classed as physicochemical. Conditions: FIG. 3G.
Another data set concerns mitochondria. The experiment in a line: Subcellular localisation (NanoSIMS imaging, click labeling with fluorescence microscopy) in activated MDM. Conditions: aMDM; cytochrome c as mitochondrial marker. The class given is cell-based, human.

For `N=C(N)NC(=N)NCCCCCCCCCCCCNC(=N)NC(=N)N` [LCC-12, lipophilic copper clamp C12], the “formation of copper(II) complex detected by HRMS” value in data set [1] is “formed a mono-adduct with copper(II) at low-micromolar concentrations”. Besides, the subcellular localisation entry in the data set on mitochondria is “accumulation of LCC-12 in mitochondria”. Consider `C#CCCN(C)C(=N)NC(=N)N` [metforminyn, reference compound], for which the subcellular localisation entry in the data set with mitochondria is “co-localizing with the mitochondrial component cytochrome c”. `CN(C)C(=N)NC(=N)N` [Metformin, 1,1-dimethylbiguanid hydrochloride, reference compound]: the “formation of copper(II) complex detected by HRMS” value in data set [1] is “substantially higher concentrations of Met were required to detect a bimolecular copper complex”.
